Test results reported in the supplement of paper PMC6078165.
The reference is the same well before dosing, and untreated signal decays as well.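 The tumor cells are basal-like or mesenchymal-like triple-negative breast cancer lines cultured without fibroblasts. Reduced red signal indicates lost mitochondrial integrity, serving as a proxy for apoptotic death.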

Columns and labels:
Assay in all cases: relative JC-1 red fluorescence (viability) vs pre-drug, monoculture (fraction); higher = more viable cancer cells
Details in all cases: coculture fibroblast: none (monoculture)
[1] = tested on: MDAMB231
Method: (§1)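 JC-1 labelled TNBC cells grown in monoculture (density kept equal with unlabelled cancer cells) in 384-well plates in FluoroBrite medium, treated with one of 42 anticancer drugs at 0.1, 1, 10 or 100 uM. JC-1 red fluorescence (mitochondrial integrity, surrogate of apoptotic death) was read by plate reader every 8 h for 72 h. Values are normalised to each well's pre-drug value, with background from alamethicin. The stock of one drug was tenfold lower, so its dose labels may be too high. Monoculture values are repeated alongside each fibroblast plate and are averaged here.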

[2] = tested on: BT20
Method: as §1

[3] = tested on: MDAMB436
Method: as §1

[4] = tested on: MDAMB468
Method: as §1

CCCCCOC(=O)Nc1nc(=O)n([C@@H]2O[C@H](C)[C@@H](O)[C@H]2O)cc1F [Capecitabine]
relative JC-1 red fluorescence
Details	8 h	16 h	24 h	32 h	40 h	48 h	56 h	64 h	72 h
[1], 0.1 µM	0.837	0.786	0.758	0.799	0.793	0.688	0.808	0.748	0.735
[1], 1 µM	0.752	0.719	0.681	0.611	0.567	0.56	0.536	0.549	0.549
[1], 10 µM	0.769	0.7348	0.664	0.605	0.568	0.55	0.525	0.54	0.537
[1], 100 µM	0.771	0.764	0.674	0.6551	0.626	0.598	0.57	0.585	0.571
[2], 0.1 µM	0.9298	0.854	0.757	0.677	0.628	0.587	0.545	0.516	0.497
[2], 1 µM	0.979	0.9352	0.878	0.803	0.763	0.745	0.716	0.712	0.71521
[2], 10 µM	0.947	0.8826	0.759	0.689	0.634	0.593	0.552	0.521	0.5
[2], 100 µM	0.9383	0.887	0.821	0.763	0.722	0.711	0.68	0.66	0.646
[3], 0.1 µM	0.843	0.701	0.7134	0.6542	0.6362	0.62591	0.6262	0.6223	0.6275
[3], 1 µM	0.8802	0.867	0.834	0.807	0.809	0.817	0.824	0.828	0.839
[3], 10 µM	0.8767	0.801	0.777	0.731	0.722	0.707	0.704	0.704	0.701
[3], 100 µM	0.89	0.8103	0.785	0.731	0.712	0.698	0.688	0.681	0.678
[4], 0.1 µM	0.901	0.83	0.76	0.6835	0.641	0.6324	0.603	0.582	0.574
[4], 1 µM	0.917	0.8791	0.8356	0.7386	0.7	0.693	0.676	0.66	0.653
[4], 10 µM	0.9139	0.8709	0.788	0.7263	0.6882	0.6786	0.653	0.631	0.621
[4], 100 µM	0.9243	0.857	0.792	0.748	0.706	0.662	0.636	0.61	0.594

N.N.[Cl][Pt][Cl] [Cisplatin]
relative JC-1 red fluorescence
Details	8 h	16 h	24 h	32 h	40 h	48 h	56 h	64 h	72 h
[1], 0.1 µM	0.744	0.708	0.671	0.653	0.607	0.587	0.555	0.575	0.57
[1], 1 µM	0.705	0.6539	0.695	0.621	0.606	0.616	0.615	0.649	0.653
[1], 10 µM	0.731	0.696	0.734	0.647	0.614	0.616	0.592	0.625	0.628
[1], 100 µM	0.66	0.649	0.61375	0.567	0.504	0.487	0.465	0.469	0.458
[2], 0.1 µM	0.9148	0.8307	0.763	0.697	0.653	0.636	0.608	0.607	0.598
[2], 1 µM	0.886	0.797	0.745	0.683	0.652	0.634	0.605	0.591	0.581
[2], 10 µM	0.893	0.815	0.6916	0.549	0.504	0.488	0.478	0.477	0.474
[2], 100 µM	0.868	0.475	0.376	0.3	0.276	0.266	0.248	0.245	0.243
[3], 0.1 µM	0.872	0.82	0.87	0.842	0.859	0.879	0.897	0.855	0.848
[3], 1 µM	0.7757	0.773	0.795	0.762	0.773	0.799	0.816	0.688	0.768
[3], 10 µM	0.849	0.882	0.837	0.832	0.81	0.871	0.876	0.8611	0.885
[3], 100 µM	0.823	0.782	0.782	0.734	0.72	0.72	0.718	0.726	0.734
[4], 0.1 µM	0.89	0.7705	0.744	0.704	0.674	0.677	0.648	0.644	0.643
[4], 1 µM	0.851	0.742	0.721	0.662	0.643	0.643	0.624	0.623	0.621
[4], 10 µM	0.793	0.625	0.571	0.51	0.474	0.478	0.459	0.45	0.457
[4], 100 µM	0.748	0.575	0.527	0.461	0.418	0.421	0.401	0.393	0.39

C#Cc1cccc(Nc2ncnc3cc(OCCOC)c(OCCOC)cc23)c1 [Erlotinib]
relative JC-1 red fluorescence
Details	8 h	16 h	24 h	32 h	40 h	48 h	56 h	64 h	72 h
[1], 0.1 µM	0.75	0.741	0.668	0.683	0.626	0.619	0.574	0.592	0.575
[1], 1 µM	0.704	0.6921	0.719	0.66919	0.64418	0.6444	0.618	0.6455	0.6413
[1], 10 µM	0.782	0.807	0.731	0.807	0.785	0.78	0.763	0.772	0.763
[1], 100 µM	0.801	0.836	0.816	0.862	0.847	0.846	0.847	0.862	0.866
[2], 0.1 µM	0.951	0.8733	0.769	0.6927	0.644	0.605	0.582	0.551	0.531
[2], 1 µM	0.931	0.861	0.861	0.802	0.7901	0.7817	0.769	0.772	0.766
[2], 10 µM	0.961	0.906	0.817	0.76	0.727	0.707	0.689	0.665	0.644
[2], 100 µM	0.955	0.944	0.847	0.924	0.909	0.914	0.917	0.817	0.842
[3], 0.1 µM	0.856	0.822	0.774	0.707	0.692	0.682	0.675	0.675	0.68
[3], 1 µM	0.811	0.759	0.751	0.693	0.667	0.659	0.642	0.635	0.625
[3], 10 µM	0.9006	0.851	0.842	0.8	0.784	0.762	0.751	0.752	0.732
[3], 100 µM	0.819	0.872	0.924	0.901	0.916	0.785	0.8726	0.876	0.906
[4], 0.1 µM	0.9104	0.862	0.8005	0.723	0.6724	0.657	0.628	0.6059	0.5879
[4], 1 µM	0.8946	0.811	0.834	0.791	0.781	0.775	0.739	0.726	0.717
[4], 10 µM	0.927	0.8985	0.851	0.806	0.796	0.7621	0.7418	0.735	0.718
[4], 100 µM	0.907	0.873	0.891	0.822	0.808	0.827	0.806	0.81	0.804

C[C@]12CC[C@@H]3c4ccc(O)cc4C[C@@H](CCCCCCCCC[S+]([O-])CCCC(F)(F)C(F)(F)F)[C@H]3[C@@H]1CC[C@@H]2O (stereo partly specified) [Fulvestrant]
relative JC-1 red fluorescence
Details	8 h	16 h	24 h	32 h	40 h	48 h	56 h	64 h	72 h
[1], 0.1 µM	0.742	0.728	0.561	0.6272	0.585	0.547	0.509	0.501	0.485
[1], 1 µM	0.775	0.775	0.796	0.817	0.798	0.743	0.622	0.668	0.732
[1], 10 µM	0.861	0.983	0.737	0.951	0.935	0.909	0.891	0.878	0.873
[1], 100 µM	0.864	0.815	0.86	0.8522	0.785	0.8429	0.781	0.847	0.725
[2], 0.1 µM	0.932	0.864	0.7619	0.7001	0.65	0.621	0.578	0.548	0.53
[2], 1 µM	0.909	0.816	0.799	0.723	0.685	0.667	0.638	0.622	0.609
[2], 10 µM	0.9888	0.949	0.932	0.879	0.876	0.884	0.874	0.878	0.876
[2], 100 µM	0.819	0.761	0.854	0.874	0.904	0.904	0.84	0.877	0.822
[3], 0.1 µM	0.85	0.749	0.723	0.644	0.634	0.611	0.596	0.589	0.585
[3], 1 µM	0.869	0.7805	0.78532	0.7387	0.737	0.733	0.721	0.713	0.716
[3], 10 µM	0.9658	0.9309	0.924	0.868	0.86	0.854	0.83	0.817	0.798
[3], 100 µM	0.844	0.87	0.8037	0.917	0.876	0.833	0.911	0.891	0.883
[4], 0.1 µM	0.893	0.829	0.765	0.719	0.692	0.681	0.654	0.634	0.623
[4], 1 µM	0.907	0.816	0.789	0.726	0.688	0.681	0.665	0.643	0.626
[4], 10 µM	0.9719	0.97	0.948	0.915	0.913	0.902	0.893	0.871	0.856
[4], 100 µM	0.962	0.9924	0.813	0.936	0.9603	0.96032	0.9532	0.9413	0.9367
